Percent effect of library compounds

By UniProt entry, the sequences of proteins in these tests, tags left out.
UniProt P9WNZ1, whole entry: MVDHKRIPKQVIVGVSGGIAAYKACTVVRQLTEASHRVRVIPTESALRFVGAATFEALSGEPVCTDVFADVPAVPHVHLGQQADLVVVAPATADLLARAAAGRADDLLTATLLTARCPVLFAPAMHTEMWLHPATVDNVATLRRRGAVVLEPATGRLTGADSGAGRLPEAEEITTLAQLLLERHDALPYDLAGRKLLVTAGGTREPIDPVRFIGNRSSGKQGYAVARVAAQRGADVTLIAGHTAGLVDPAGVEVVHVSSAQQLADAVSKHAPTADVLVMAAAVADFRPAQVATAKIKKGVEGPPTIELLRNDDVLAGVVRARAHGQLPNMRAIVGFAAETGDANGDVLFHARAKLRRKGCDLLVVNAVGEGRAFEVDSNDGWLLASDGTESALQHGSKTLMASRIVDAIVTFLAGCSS

Measurements from “University of Dundee, Small-Polar-MMV Screening Library” (2021), ChEMBL document CHEMBL3988442.

A: 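Cell assay of Leishmania donovani living inside macrophages; the read-out is not stated. Tested at 30 µM. Higher reads as stronger inhibition (inferred: compounds with an IC50 in retests scored well above the rest). Of about 69,000 compounds tested this way, about 1,000 (1.5%) reached 50% or more in at least one test.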
B: 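Enzyme assay of CoaBC with a phosphate dye (Biomol Green) read at 650 nm. Target: Coenzyme A biosynthesis protein CoaBC, Mycobacterium tuberculosis (UniProt P9WNZ1). Tested at 30 µM. Direction is inferred from only a few compounds that gave an IC50; most scored high, so higher reads as stronger inhibition. Most strong results did not repeat in a second test. About 67,000 compounds were tested under these conditions; 0.06% (about 40) showed 50% or more at least once.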

Each number is a percent effect as filed.
The controls that fix the scale are not given in the record; negative values are as filed.
This is an unselected part of the compounds tested.
Two or more numbers in one place are separate tests of the same structure; such repeats can differ widely.
A dash means the value is not listed here; it may have been measured.

| # | Compound | A | B |
|---|---|---|---|
| 1 | `CC(=O)NCC1CCN(C(=O)c2csc(-c3ccc(C)cc3C)n2)CC1` | 22.34% | 0.6745% |
| 2 | `Cc1cc2n(n1)[C@@H](C(F)(F)F)C[C@@H](C1CCN(C(=O)C3CC3)CC1)N2` | 18.33% and 7.293% | 1.946% |
| 3 | `Cc1cn2c(n1)CCC(NC(=O)c1cc(C3CC3)[nH]n1)C2` (centres unmarked) | 24.04% | 2.872% |
| 4 | `Cc1ccc(N(CC(=O)c2ccc(Br)cc2)C2=NCCCCC2)cc1` | - | 16.33% |
| 5 | `CN(C)CCN1C2(CCN(Cc3nccs3)C2)c2ccccc2S1(=O)=O` (centres unmarked) | - | 4% |
| 6 | `CCc1ncnc2c1CCN(Cc1cccs1)CC2.O=C(O)C(F)(F)F` | -11.06% | - |
| 7 | `CC(=O)Nc1nc(C(=O)N2CCCC(n3nc(C)nc3C)C2)cs1` (centres unmarked) | 14.62% | 1.173% |
| 8 | `NC(=O)CN1CCCN(C(=O)Cc2ccc(Br)cc2)CC1` | 26.07% | 0.7833% |
| 9 | `NC(=O)c1cccc(CCNC(=O)N2Cc3ccccc3C2)c1` | 5.938% | 7.265% |
| 10 | `Cc1nc(C2CCCN2C(=O)c2cnns2)no1` (centres unmarked) | 10.37% | 2.926% |
| 11 | `CC(C)(C)OC(=O)NCC1CCN(C(=O)c2cc(Cl)c[nH]2)CC1` | 44.69% | -2.609% |
| 12 | `Cc1ccc(NC(=O)c2cnc(N3CCN(C)CC3)nc2C)cc1C` | 45.46% | 2.3% |
| 13 | `CCC(CO)N(Cc1ccc(F)cc1)Cc1c(C)nn(C)c1Cl` (centres unmarked) | 9.458% | 0.6734% |
| 14 | `CN(C)CC1CN(c2ccc(C#N)cn2)CCO1` (centres unmarked) | 25.47% | 6.511% |
| 15 | `CC(C)CNC(=O)c1ccc(NC(=O)NC(C)(C)CO)cc1Cl` | -27.92% | -0.7937% |
| 16 | `CCS(=O)(=O)N1CCC2(CC1)CC[C@@]1(C(=O)NC)CN(C(C)=O)C[C@@H]21` | - | 15% |
| 17 | `CC(C)O[C@H]1CN(Cc2cnc3c(-c4ccccc4)cnn3c2)C[C@@H]1O` | 20.55% | 3.704% |
| 18 | `O=C(c1cnn[nH]1)N(Cc1ccncc1)CC1CCCO1` (centres unmarked) | 15.19% | 2.822% |
| 19 | `Cc1ccc(-n2nnc(CC(=O)N3CCOCC3)c2C)cc1` | -1.051% | 11.36% |
| 20 | `COc1cc(CN(CCCN(C)C)Cc2ccccn2)cc2c1OCO2.O=C(O)CC(O)(CC(=O)O)C(=O)O` | 1.861% and -5.806% | - |
| 21 | `Cc1cc(CNC(=O)NCCOc2ccc(F)c(F)c2)on1` | 0.6606% | 0.9615% |
| 22 | `Cc1cc(C(=O)N2CCc3c(ncnc3N3CCOCC3)C2)[nH]n1` | 29.14% | -9.146% |
| 23 | `CC(C)C(=O)N1CCN(Cc2cnn(C)c2)CC2(CC(=O)N(C)C2)C1.O=C(O)C(F)(F)F` (centres unmarked) | 31.32% | - |
| 24 | `Cc1cccc(-c2nnn3c2COC(CNC(=O)N2CCCC2)C3)c1` (centres unmarked) | -8.816% | 3.448% |
| 25 | `Cc1cccc(C(=O)NCc2ccccc2)n1` | 16.86% | 5.032% |
| 26 | `CNC(=O)c1nc(CN2CCOC(Cc3ccc(F)cc3)C2)no1` (centres unmarked) | 9.936% | 11.44% |
| 27 | `COCC1CN(C(=O)Nc2ccc(Cl)cc2Cl)CCO1` (centres unmarked) | -6.17% | 6.09% |
| 28 | `Cc1ccc(C(CNC(=O)c2cc(CC(C)C)nn2C)N(C)C)cc1` (centres unmarked) | -7.603% | - |
| 29 | `Cc1ccoc1C(=O)NC1CCN(Cc2ccccc2C#N)CC1` | 21.35% | 1.145% |
| 30 | `Cc1cc(NC(=O)N2CCCC2C(=O)NC2CC2)c2ncccc2c1` (centres unmarked) | -31.35% | 6.786% |
| 31 | `COc1cccc(CN(C)Cc2[nH]c3ccccc3c2C)c1O` | 7.278% | 0.4866% |
| 32 | `CN(Cc1ccc2c(c1)OCCO2)Cn1nc(C(C)(C)C)ccc1=O` | -18.52% | -8.56% |
| 33 | `O[C@@H]1C[C@@H](c2nc(-c3ccc(OC(F)(F)F)cc3)no2)N(CC2CC2)C1` | 10.14% | 12.87% |
| 34 | `Cc1ccccc1SC1CCN(C(=O)C2CNCC(=O)N2)CC1` (centres unmarked) | 24.39% | 8.848% |
| 35 | `O=C(O)C(F)(F)F.O=C1CCC2(CCCN(C(=O)Cc3cccnc3)C2)N1` (centres unmarked) | 16.8% | - |
| 36 | `Cc1nnc(SC2CCc3ccccc3NC2=O)o1` (centres unmarked) | -20.6% | 3.418% |
| 37 | `Cc1nonc1CN(C)Cc1nc(-c2cccc(F)c2F)oc1C` | 19.08% | -0.3632% |
| 38 | `CCc1nc(CN2CCN(CC(O)c3ccccc3)CC2)no1` (centres unmarked) | 0.988% | 2.417% |
| 39 | `CC1CCCCN1Cc1nc(C2CC2)no1` (centres unmarked) | 31.19% | 14.1% |
| 40 | `[H][C@]12CC[C@]([H])(CN(Cc3ccc(F)cc3)C1)N(C(=O)Cc1cccnc1)C2` | 15.19% | - |
| 41 | `NC(=O)CN1CCCN(C(=O)CCOc2ccccc2Cl)CC1` | 15.39% | 0.2625% |
| 42 | `COCCN1C(=O)C2(CCN(CC3CC3)CC2)c2ccccc21.O=C(O)C(F)(F)F` | 31.33% | - |
| 43 | `CN(Cc1cnn(C)c1)C(=O)NC1CCS(=O)(=O)C1` (centres unmarked) | 26.18% | -3.797% |
| 44 | `CC[C@@H](Cn1ncc2ccccc2c1=O)NC(=O)c1cnc(C)cn1` | 15.09% | -14.36% |
| 45 | `CCN(CC)C(=O)c1ccn(COc2ccc(F)cc2F)n1` | -23.4% | -6.467% |
| 46 | `CC(C)c1cc(CN2CCNCC2)no1` | 19.36% | -0.3681% |
| 47 | `COc1ccc(NC(=O)N(C)Cc2ccsc2)cn1` | 14.77% | 2.362% |
| 48 | `[H][C@]12CCN(C(=O)NC(C)C)C[C@@]1([H])OCCN(S(C)(=O)=O)C2` | 27.16% | - |
| 49 | `O=C(NCc1ccccc1)c1nc2c(o1)CN(C(=O)c1cccnc1)C2` | - | 1.777% |
| 50 | `CC(c1ncc(C(C)(C)C)o1)N1CCN(Cc2ccncc2)CC1` (centres unmarked) | -4.009% | 2.644% |
| 51 | `CC(C)c1nc(C2CCCN2CCCc2nc3ccccc3o2)no1` (centres unmarked) | 10.1% | 3.915% |
| 52 | `Cc1ccc(CNC(=O)C2c3c(ncn3C(C)C)CCN2S(C)(=O)=O)o1` (centres unmarked) | 15.8% | - |
| 53 | `CNC(=O)[C@@H]1CN(Cc2ccccc2)C[C@H]1C(=O)c1ccc(F)cc1` | -8.279% | 5.085% |
| 54 | `NC(=O)C1CCN(C(=O)C2SCCc3sccc32)CC1` (centres unmarked) | 10.17% | 7.143% |
| 55 | `Cn1cc(Cl)c(CN2CCCC(Cn3cc(CO)nn3)C2)n1` (centres unmarked) | -28.52% | 4.762% |
| 56 | `COCCN(C)CCN1CC2(CCN(C3CCCCC3)CC2)OC1=O` | 1.077% | 2.051% |
| 57 | `Cc1ccc(C(=O)N2CCC3(CC2)CC(N2CCOCC2)C3)cc1.O=C(O)C(F)(F)F` | 33.64% | - |
| 58 | `CC1CN(CC(=O)N2CCOCC2)CCN1Cc1nccn1C` (centres unmarked) | 29.45% | 7.597% |
| 59 | `O=C(NCCCOCC1CCCO1)c1cccnc1N1CCOCC1` (centres unmarked) | -22.15% | 0% |

Once more, the final 7:

With CNC(=O)[C@@H]1CN(Cc2ccccc2)C[C@H]1C(=O)c1ccc(F)cc1 the screen gave A: -8.279%; B: 5.085%.
With NC(=O)C1CCN(C(=O)C2SCCc3sccc32)CC1 (centres unmarked) the screen gave A: 10.17%; B: 7.143%.
With Cn1cc(Cl)c(CN2CCCC(Cn3cc(CO)nn3)C2)n1 (centres unmarked) the screen gave A: -28.52%; B: 4.762%.
With COCCN(C)CCN1CC2(CCN(C3CCCCC3)CC2)OC1=O the screen gave A: 1.077%; B: 2.051%.
With Cc1ccc(C(=O)N2CCC3(CC2)CC(N2CCOCC2)C3)cc1.O=C(O)C(F)(F)F the screen gave A: 33.64%.
With CC1CN(CC(=O)N2CCOCC2)CCN1Cc1nccn1C (centres unmarked) the screen gave A: 29.45%; B: 7.597%.
With O=C(NCCCOCC1CCCO1)c1cccnc1N1CCOCC1 (centres unmarked) the screen gave A: -22.15%; B: 0%.